{"sequences": {"note": "Sequences of proteins named here, by UniProt entry; tags and fusion partners are left off.", "UniProt Q92973": "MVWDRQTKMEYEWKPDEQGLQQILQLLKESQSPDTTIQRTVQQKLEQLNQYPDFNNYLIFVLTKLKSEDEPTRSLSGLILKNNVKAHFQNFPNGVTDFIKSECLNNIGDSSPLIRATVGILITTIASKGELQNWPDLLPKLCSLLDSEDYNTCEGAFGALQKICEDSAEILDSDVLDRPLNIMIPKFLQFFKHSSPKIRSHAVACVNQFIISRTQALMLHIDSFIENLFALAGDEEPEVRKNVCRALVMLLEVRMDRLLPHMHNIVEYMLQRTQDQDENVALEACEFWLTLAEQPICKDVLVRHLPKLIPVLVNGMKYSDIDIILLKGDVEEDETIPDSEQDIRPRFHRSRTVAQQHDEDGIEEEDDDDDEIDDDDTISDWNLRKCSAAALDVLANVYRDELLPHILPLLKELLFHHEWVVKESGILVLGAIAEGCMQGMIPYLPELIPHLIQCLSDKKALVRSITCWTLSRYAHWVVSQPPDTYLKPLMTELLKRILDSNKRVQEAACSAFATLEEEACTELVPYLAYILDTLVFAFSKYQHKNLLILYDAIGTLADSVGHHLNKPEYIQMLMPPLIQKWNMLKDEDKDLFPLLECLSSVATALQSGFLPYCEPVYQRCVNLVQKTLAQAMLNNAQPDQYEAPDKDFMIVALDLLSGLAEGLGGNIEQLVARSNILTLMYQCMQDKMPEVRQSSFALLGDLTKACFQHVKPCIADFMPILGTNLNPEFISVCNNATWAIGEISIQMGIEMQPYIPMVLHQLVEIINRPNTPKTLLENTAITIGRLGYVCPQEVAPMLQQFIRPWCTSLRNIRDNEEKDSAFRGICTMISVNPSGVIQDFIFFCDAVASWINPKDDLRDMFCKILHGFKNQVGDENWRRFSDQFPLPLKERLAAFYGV"}, "source": "paper doi:10.1101/2024.09.04.611121", "target": "TDP-43 (TAR DNA/RNA-binding protein 43 kDa), endogenous (human (endogenous in iPSC-derived cortical neurons)) (UniProt Q13148)", "assay": "co-IP", "note": "Results are given in words; binding and its absence hold for the method and conditions named. In cells and extracts the contact can be indirect.", "data": [{"substance": "importin-β2, endogenous (iPSC-derived cortical neurons) (from UniProt Q92973 1-898)", "values": [{"measurement": "binding", "value": "no binding"}]}]}
